The list shows a part of the results.
Tests used:
Assay in all cases: glycan array binding signal (z-score within array); higher = stronger binding
Conditions in all cases: glycan notation: IUPAC condensed, linker removed
[1] = molecular target: Gal(a1-3)Gal
Outline: (§1)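 Glycan array data were curated from 3228 arrays in the Consortium for Functional Glycomics database and kept only where the protein sequence was available. Glycan names were converted to IUPAC-condensed notation, and columns mapping to the same glycan were averaged. The binding signal is a within-array Z-score, averaged across arrays of the same protein sequence at different concentrations or buffers and across linkers. Negative Z-scores can be read as non-binding.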

[2] = molecular target: Gal(a1-3)Gal(b1-3)GlcNAc
Outline: as §1

[3] = molecular target: Gal(a1-3)Gal(b1-3)GlcNAc(b1-2)Man
Outline: as §1

[4] = molecular target: Gal(a1-3)Gal(b1-3)GlcNAc(b1-2)Man(a1-3)[Gal(a1-3)Gal(b1-3)GlcNAc(b1-2)Man(a1-6)]Man(b1-4)GlcNAc(b1-4)GlcNAc
Outline: as §1

[5] = molecular target: Gal(a1-3)Gal(b1-3)GlcNAc(b1-3)GalNAc
Outline: as §1

[6] = molecular target: Gal(a1-3)Gal(b1-3)GlcNAc(b1-6)GalNAc
Outline: as §1

[7] = molecular target: Gal(a1-3)Gal(b1-3)[Fuc(a1-4)]GlcNAc(b1-2)Man(a1-3)[Gal(a1-3)Gal(b1-3)[Fuc(a1-4)]GlcNAc(b1-2)Man(a1-6)]Man(b1-4)GlcNAc(b1-4)GlcNAc
Outline: as §1

[8] = molecular target: Gal(a1-3)Gal(b1-4)Glc
Outline: as §1

[9] = molecular target: Gal(a1-3)Gal(b1-4)GlcNAc
Outline: as §1

[10] = molecular target: Gal(a1-3)Gal(b1-4)GlcNAc(b1-2)Man
Outline: as §1

[11] = molecular target: Gal(a1-3)Gal(b1-4)GlcNAc(b1-2)Man(a1-3)[Gal(a1-3)Gal(b1-4)GlcNAc(b1-2)Man(a1-6)]Man(b1-4)GlcNAc(b1-4)GlcNAc
Outline: as §1

[12] = molecular target: Gal(a1-3)Gal(b1-4)GlcNAc(b1-3)GalNAc
Outline: as §1

[13] = molecular target: Gal(a1-3)Gal(b1-4)GlcNAc(b1-6)GalNAc
Outline: as §1

[14] = molecular target: Gal(a1-3)Gal(b1-4)[Fuc(a1-3)]GlcNAc
Outline: as §1

[15] = molecular target: Gal(a1-3)Gal(b1-4)[Fuc(a1-3)]GlcNAc(b1-2)Man(a1-3)[Gal(a1-3)Gal(b1-4)[Fuc(a1-3)]GlcNAc(b1-2)Man(a1-6)]Man(b1-4)GlcNAc(b1-4)GlcNAc
Outline: as §1

[16] = molecular target: Gal(a1-3)GalNAc
Outline: as §1

[17] = molecular target: Gal(a1-3)[Gal(a1-4)]Gal(b1-4)GlcNAc
Outline: as §1

[18] = molecular target: Gal(a1-4)Gal(b1-3)GlcNAc(b1-2)Man(a1-3)[Gal(a1-4)Gal(b1-3)GlcNAc(b1-2)Man(a1-6)]Man(b1-4)GlcNAc(b1-4)GlcNAc
Outline: as §1

[19] = molecular target: Gal(a1-4)Gal(b1-4)Glc
Outline: as §1

[20] = molecular target: Gal(a1-4)Gal(b1-4)GlcNAc
Outline: as §1

[21] = molecular target: Gal(a1-4)Gal(b1-4)GlcNAc(b1-2)Man(a1-3)[Gal(a1-4)Gal(b1-4)GlcNAc(b1-2)Man(a1-6)]Man(b1-4)GlcNAc(b1-4)GlcNAc
Outline: as §1

[22] = molecular target: Gal(a1-4)Gal(b1-4)GlcNAc(b1-3)Gal(b1-4)Glc
Outline: as §1

[23] = molecular target: Gal(a1-4)GlcNAc
Outline: as §1

[24] = molecular target: Gal(a1-6)Glc
Outline: as §1

[25] = molecular target: Gal(b1-2)Gal
Outline: as §1

[26] = molecular target: Gal(b1-3)Gal
Outline: as §1

[27] = molecular target: Gal(b1-3)Gal(b1-4)GlcNAc
Outline: as §1

[28] = molecular target: Gal(b1-3)GalNAc
Outline: as §1

[29] = molecular target: Gal(b1-3)GalNAc(a1-3)[Fuc(a1-2)]Gal(b1-4)Glc
Outline: as §1

[30] = molecular target: Gal(b1-3)GalNAc(a1-3)[Fuc(a1-2)]Gal(b1-4)GlcNAc
Outline: as §1

[31] = molecular target: Gal(b1-3)GalNAc(b1-3)Gal
Outline: as §1

[32] = molecular target: Gal(b1-3)GalNAc(b1-3)Gal(a1-4)Gal(b1-4)Glc
Outline: as §1

[33] = molecular target: Gal(b1-3)GalNAc(b1-4)Gal(b1-4)Glc
Outline: as §1

[34] = molecular target: Gal(b1-3)GalNAc(b1-4)[Neu5Ac(a2-3)]Gal(b1-4)Glc
Outline: as §1

[35] = molecular target: Gal(b1-3)GlcNAc
Outline: as §1

[36] = molecular target: Gal(b1-3)GlcNAc(a1-3)Gal(b1-4)GlcNAc
Outline: as §1

[37] = molecular target: Gal(b1-3)GlcNAc(a1-6)Gal(b1-4)GlcNAc
Outline: as §1

[38] = molecular target: Gal(b1-3)GlcNAc(b1-2)Man
Outline: as §1

B1: AT3G09350(27) (Arabidopsis thaliana), Q84J81 (protein)
chain: MAKDGPNWDGLLKWSLSHADGTRPTRQLSEEDRKWFMEAMQSQTVDVVKRMKEITLVMQTPEQVLVEHGVTPEDIQDLLDELQEHVESIDMANDLHSIGGLVPLLSFLKNSHANIRAKAADVVSTIVQNNPRSQELVMETNALESLLSNFTSDTDIHARTQALGAISSLIRHNKPGVTAFKLANGYAGLRDALASDSVRFQRKALNLLQYLLQEDDSDRSIATGLGFPRVMMHLASSDDAEIREAALRGLLELSREKNDGSSSIDKSDEKLRQLLEERIKGITLMSQEDLETVKEERQLVDLLWSICYNEPSSLREKGLVVLPGEDALPPDVASKLFEPPLRASAANRNATEKKDEPMKLLGP
[1]
  glycan array binding signal (z-score): 0.145
[2]
  glycan array binding signal (z-score): 0.324
[3]
  glycan array binding signal (z-score): 0.248
[4]
  glycan array binding signal (z-score): 0.459
[5]
  glycan array binding signal (z-score): -0.377
[6]
  glycan array binding signal (z-score): -0.449
[7]
  glycan array binding signal (z-score): 0.045
[8]
  glycan array binding signal (z-score): -0.343
[9]
  glycan array binding signal (z-score): -0.709
[10]
  glycan array binding signal (z-score): 1.33
[11]
  glycan array binding signal (z-score): 0.636
[12]
  glycan array binding signal (z-score): 0
[13]
  glycan array binding signal (z-score): -0.714
[14]
  glycan array binding signal (z-score): -0.122
[15]
  glycan array binding signal (z-score): -0.652
[16]
  glycan array binding signal (z-score): 2.5
[17]
  glycan array binding signal (z-score): 8.94
[18]
  glycan array binding signal (z-score): -0.228
[19]
  glycan array binding signal (z-score): 2.11
[20]
  glycan array binding signal (z-score): 0.589
[21]
  glycan array binding signal (z-score): 0.684
[22]
  glycan array binding signal (z-score): 0.321
[23]
  glycan array binding signal (z-score): -0.641
[24]
  glycan array binding signal (z-score): -0.554
[25]
  glycan array binding signal (z-score): -0.771
[26]
  glycan array binding signal (z-score): -0.545
[27]
  glycan array binding signal (z-score): -0.117
[28]
  glycan array binding signal (z-score): -0.049
[29]
  glycan array binding signal (z-score): -0.346
[30]
  glycan array binding signal (z-score): -0.501
[31]
  glycan array binding signal (z-score): -0.768
[32]
  glycan array binding signal (z-score): -0.504
[33]
  glycan array binding signal (z-score): 1.91
[34]
  glycan array binding signal (z-score): -0.618
[35]
  glycan array binding signal (z-score): 0.365
[36]
  glycan array binding signal (z-score): -0.421
[37]
  glycan array binding signal (z-score): -0.013
[38]
  glycan array binding signal (z-score): -0.177

— the supplement of paper PMC8728848
